Source: patent US20190083459A1, “PHARMACEUTICAL COMPOSITION AND USE THEREOF” (WATERSTONE PHARMACEUTICALS(WUHAN) CO., LTD., priority 2016, published 2019)
At least one structure is not confirmed: it was looked up by name or label, or the drawing left a doubt.

Experiments:
[1] = test system: NAFLD-modeled golden hamsters; assay: Simple high-fat diet-induced NAFLD-modeled golden hamster; format: in vivo
Excerpt: Obeticholic acid and Ezetimibe each are formulated with 10% Kolliphor HS 15 (BASF, Lot. No. 21466288K0) to a desired concentration.
78 specific pathogen free (SPF) male golden hamsters were provided, each with a body weight (BW) around 70 to 90 g, and commercially available from Beijing Vital River Laboratory Animal Technology Co., Ltd. Animal permit number is SCXK (Jing) 2012-0001.
10 golden hamsters were fed with a base diet as a normal group, while 68 golden hamsters were fed with a high-fat diet formulated with 0.3% cholesterol, 12.5% palm oil and 87.2% base diet upon purchased. All of them had free access to water, and kept in a same light rhythm (day time/night time: 10 h/14 h). After 3 weeks of feed, the golden hamsters were fasted for 14 hours, with free access to water, and then sampled for blood in a volume of 0.8 mL from posterior orbital venous plexus the next day. The blood samples added with sodium heparin for anticoagulation were centrifuged at 5000 r·min^−1 for 10 minutes, and 300 μL of supernatant for each sample was transferred into an assay cup (in volume of microliter grade) of the Sysmex CHEX-180 automatic biochemical analyzer for determination of levels of TC, TG, LDL-C, HDL-C and ALT, with results for screening of the hamsters.
6 out of 10 golden hamsters fed with the base diet were selected as a normal group, while 30 out of 68 golden hamsters fed with the high-fat diet were grouped into 3 experimental groups randomly (i.e. 10 hamsters for each group), respectively named model group, obeticholic acid group (1 mg/kg) and obeticholic acid (1 mg/kg)+Ezetimibe (1 mg/kg) group. From the first administration at PM 4:00 of the day after grouping, the 3 experimental groups were started to be each administered in a dosage of 10 mL·kg^−1, where the model group was administered with 10% Kolliphor in an equal volume. During administration, the normal group was still fed with the base diet, and the 3 experimental groups were fed with the high-fat diet. At 2 weeks of administration, all the golden hamsters were fasted but accessible to water overnight, and anesthetized with ethyl ether on the morning of the next day for collection of blood samples (in a volume of 0.8 mL) from the posterior orbital venous plexus. The blood samples added with sodium heparin for anticoagulation were centrifuged at 5000 r·min^−1 for 10 minutes, and 300 μL of plasma for each sample was transferred into the Sysmex CHEX-180 automatic biochemical analyzer for determination of levels of TC, TG, LDL-C, HDL-C, ALT, AST and ALP. At 4 weeks of administration, plasma of each hamster was collected for determination of levels of TC, TG LDL-C, HDL-C, ALT, AST and ALP. Afterwards, the hamsters were anesthetized with ethyl ether deeply, followed by weighting and laparotomy by an abdominal median incision for observation of size, color and texture of liver. After photographed, the liver was taken out, washed with saline and dried with filter paper, and weighted for calculation of liver index. Subsequently, left lobe of liver was cut out quickly and placed into 10% of neutral buffered formalin for immobilization, followed by preparation of paraffin sections (with HE staining) for observation of change of liver tissue pathology.
The results are represented in x±s, and comparison among groups is performed by t-test.

[2] = test system: NASH-modeled golden hamsters; assay: NASH-modeled golden hamster (method as Example 4, changed doses); format: in vivo; settings: obeticholic acid 5 mg/kg, Ezetimibe 0.3 mg/kg
Method: The experimental method is referred to the Example 4, except for addition of Ezetimibe group (0.3 mg/kg), dosage change to 5 mg/kg obeticholic acid for the obeticholic acid group, as well as dosage change to 5 mg/kg obeticholic acid and 0.3 mg/kg Ezetimibe for the obeticholic acid+Ezetimibe group. Specifically, a normal group (A), a model group (B), an obeticholic acid group (C), an obeticholic acid+Ezetimibe group (D) and an Ezetimibe group (E) are included in this example.
Liver tissue samples from individual golden hamsters after treatment were subjected to paraffin-sectioning, with results shown in FIG. 3.

[3] = 2 weeks of administration, t-test, in words
[4] = 4 weeks of administration, t-test, in words

## CC[C@H]1[C@@H](O)[C@@H]2[C@H](CC[C@]3(C)[C@@H]([C@H](C)CCC(=O)O)CC[C@@H]23)[C@@]2(C)CC[C@@H](O)C[C@@H]12 [Obeticholic acid, obeticholic acid]
[1]; [3]
  level of ALP in plasma compared with the model group: not changed obviously
  level of ALT in plasma compared with the model group: not changed obviously
  level of AST in plasma compared with the model group: significantly reduced
  level of HDL-C in plasma compared with the model group: not changed obviously
  level of LDL-C in plasma compared with the model group: not changed obviously
  level of TC in plasma compared with the model group: not changed obviously
  level of TG in plasma compared with the model group: not changed obviously
[1]; [4]
  level of ALP in plasma compared with the model group: not changed obviously
  level of ALT in plasma compared with the model group: significantly reduced
  level of AST in plasma compared with the model group: significantly reduced
  level of HDL-C in plasma compared with the model group: not changed obviously
  level of LDL-C in plasma compared with the model group: significantly reduced
  level of TC in plasma compared with the model group: significantly reduced
  level of TG in plasma compared with the model group: not changed obviously
  liver index compared with the model group: not changed obviously
[1]; after 4 weeks of administration, compared with model group
  morphology and appearance of liver tissues (general observation, FIG. 1 and FIG. 2): not obvious different in morphology
[1]; overall conclusion of Example 4
  therapeutic effect on the NAFLD-modeled golden hamsters: does not have obvious therapeutic effect
[2]
  fat content in liver cells (pathological sections of liver tissues, FIG. 3): reducing fat content in liver cells significantly
  level of LDL in plasma: slightly increases
  level of cholesterol in plasma: slightly increases
  level of triglyceride in plasma: slightly increases
  levels of liver function enzymes (alanine aminotransferase and aspartate aminotransferase) in plasma: slightly reduces
